Results are given in words; binding and its absence hold for the method and conditions named. In cells and extracts the contact can be indirect. Some results given as binding are weak or reduced against the parent protein; the word gives no strength.

By UniProt entry, the sequences of proteins in these tests, tags left out.
UniProt Q12888: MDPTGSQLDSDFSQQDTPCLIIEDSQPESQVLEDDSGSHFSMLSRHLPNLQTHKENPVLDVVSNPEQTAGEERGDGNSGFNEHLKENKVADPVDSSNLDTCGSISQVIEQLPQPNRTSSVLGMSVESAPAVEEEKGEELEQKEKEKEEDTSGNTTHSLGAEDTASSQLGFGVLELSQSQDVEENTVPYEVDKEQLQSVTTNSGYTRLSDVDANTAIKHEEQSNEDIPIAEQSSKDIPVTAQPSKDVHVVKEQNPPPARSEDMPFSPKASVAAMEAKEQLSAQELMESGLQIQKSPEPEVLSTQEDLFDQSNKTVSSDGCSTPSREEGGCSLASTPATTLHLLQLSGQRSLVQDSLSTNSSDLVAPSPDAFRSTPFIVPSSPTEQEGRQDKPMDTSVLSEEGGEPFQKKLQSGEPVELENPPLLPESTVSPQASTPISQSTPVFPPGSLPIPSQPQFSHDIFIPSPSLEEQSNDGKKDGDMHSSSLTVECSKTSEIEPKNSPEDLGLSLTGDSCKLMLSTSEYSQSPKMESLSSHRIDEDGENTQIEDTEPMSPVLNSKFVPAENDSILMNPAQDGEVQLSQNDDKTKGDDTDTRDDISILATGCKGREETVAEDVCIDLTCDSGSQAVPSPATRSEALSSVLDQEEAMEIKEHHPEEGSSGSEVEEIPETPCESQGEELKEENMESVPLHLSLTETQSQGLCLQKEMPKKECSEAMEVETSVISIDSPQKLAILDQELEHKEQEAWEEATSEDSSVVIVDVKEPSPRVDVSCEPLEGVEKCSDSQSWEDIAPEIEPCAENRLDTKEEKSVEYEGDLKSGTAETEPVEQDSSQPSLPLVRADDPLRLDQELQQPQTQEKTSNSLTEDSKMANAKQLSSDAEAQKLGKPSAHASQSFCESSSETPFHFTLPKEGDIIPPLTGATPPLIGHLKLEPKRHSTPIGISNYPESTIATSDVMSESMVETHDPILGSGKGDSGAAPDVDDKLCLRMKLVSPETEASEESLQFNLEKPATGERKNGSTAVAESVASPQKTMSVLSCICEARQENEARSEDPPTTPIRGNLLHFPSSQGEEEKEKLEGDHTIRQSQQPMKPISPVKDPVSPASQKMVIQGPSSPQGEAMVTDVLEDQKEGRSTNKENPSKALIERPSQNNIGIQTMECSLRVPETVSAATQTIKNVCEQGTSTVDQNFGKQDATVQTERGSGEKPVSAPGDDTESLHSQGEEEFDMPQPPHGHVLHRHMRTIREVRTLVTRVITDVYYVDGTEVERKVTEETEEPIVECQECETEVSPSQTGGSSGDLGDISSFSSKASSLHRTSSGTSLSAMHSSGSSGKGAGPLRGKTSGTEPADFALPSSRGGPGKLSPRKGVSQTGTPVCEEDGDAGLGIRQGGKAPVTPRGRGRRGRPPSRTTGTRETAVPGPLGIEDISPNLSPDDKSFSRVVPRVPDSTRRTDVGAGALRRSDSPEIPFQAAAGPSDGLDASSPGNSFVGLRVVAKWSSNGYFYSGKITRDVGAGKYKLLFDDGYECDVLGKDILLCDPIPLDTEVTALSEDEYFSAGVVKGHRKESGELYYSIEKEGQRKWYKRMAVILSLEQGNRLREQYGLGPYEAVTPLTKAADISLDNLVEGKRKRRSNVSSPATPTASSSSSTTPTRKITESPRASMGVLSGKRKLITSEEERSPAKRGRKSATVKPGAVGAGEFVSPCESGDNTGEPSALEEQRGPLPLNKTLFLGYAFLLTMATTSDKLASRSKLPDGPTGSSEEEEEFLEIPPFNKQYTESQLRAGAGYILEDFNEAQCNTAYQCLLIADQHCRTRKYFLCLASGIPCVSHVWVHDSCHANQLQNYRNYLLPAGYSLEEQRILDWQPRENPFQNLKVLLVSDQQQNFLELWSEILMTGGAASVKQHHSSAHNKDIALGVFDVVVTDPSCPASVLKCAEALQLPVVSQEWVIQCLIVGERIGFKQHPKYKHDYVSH

The target of experiment [1] is tGFP-53BP1 (UniProt Q12888). Nature of the experiment: co-IP.
For experiment [2], the target named is MYC-53BP1 (UniProt Q12888). Nature of the experiment: co-IP.

B1: USP47, endogenous (enzyme, UniProt Q96K76 1-1375)
chain: MVPGEENQLVPKEDVFWRCRQNIFDEMKKKFLQIENAAEEPRVLCIIQDTTNSKTVNERITLNLPASTPVRKLFEDVANKVGYINGTFDLVWGNGINTADMAPLDHTSDKSLLDANFEPGKKNFLHLTDKDGEQPQILLEDSSAGEDSVHDRFIGPLPREGSGGSTSDYVSQSYSYSSILNKSETGYVGLVNQAMTCYLNSLLQTLFMTPEFRNALYKWEFEESEEDPVTSIPYQLQRLFVLLQTSKKRAIETTDVTRSFGWDSSEAWQQHDVQELCRVMFDALEQKWKQTEQADLINELYQGKLKDYVRCLECGYEGWRIDTYLDIPLVIRPYGSSQAFASVEEALHAFIQPEILDGPNQYFCERCKKKCDARKGLRFLHFPYLLTLQLKRFDFDYTTMHRIKLNDRMTFPEELDMSTFIDVEDEKSPQTESCTDSGAENEGSCHSDQMSNDFSNDDGVDEGICLETNSGTEKISKSGLEKNSLIYELFSVMVHSGSAAGGHYYACIKSFSDEQWYSFNDQHVSRITQEDIKKTHGGSSGSRGYYSSAFASSTNAYMLIYRLKDPARNAKFLEVDEYPEHIKNLVQKERELEEQEKRQREIERNTCKIKLFCLHPTKQVMMENKLEVHKDKTLKEAVEMAYKMMDLEEVIPLDCCRLVKYDEFHDYLERSYEGEEDTPMGLLLGGVKSTYMFDLLLETRKPDQVFQSYKPGEVMVKVHVVDLKAESVAAPITVRAYLNQTVTEFKQLISKAIHLPAETMRIVLERCYNDLRLLSVSSKTLKAEGFFRSNKVFVESSETLDYQMAFADSHLWKLLDRHANTIRLFVLLPEQSPVSYSKRTAYQKAGGDSGNVDDDCERVKGPVGSLKSVEAILEESTEKLKSLSLQQQQDGDNGDSSKSTETSDFENIESPLNERDSSASVDNRELEQHIQTSDPENFQSEERSDSDVNNDRSTSSVDSDILSSSHSSDTLCNADNAQIPLANGLDSHSITSSRRTKANEGKKETWDTAEEDSGTDSEYDESGKSRGEMQYMYFKAEPYAADEGSGEGHKWLMVHVDKRITLAAFKQHLEPFVGVLSSHFKVFRVYASNQEFESVRLNETLSSFSDDNKITIRLGRALKKGEYRVKVYQLLVNEQEPCKFLLDAVFAKGMTVRQSKEELIPQLREQCGLELSIDRFRLRKKTWKNPGTVFLDYHIYEEDINISSNWEVFLEVLDGVEKMKSMSQLAVLSRRWKPSEMKLDPFQEVVLESSSVDELREKLSEISGIPLDDIEFAKGRGTFPCDISVLDIHQDLDWNPKVSTLNVWPLYICDDGAVIFYRDKTEELMELTDEQRNELMKKESSRLQKTGHRVTYSPRKEKALKIYLDGAPNKDLTQD
Take B1: in experiment [1], the binding result is given as “binds”.

B2: DNA ligase III (enzyme, UniProt P49916 43-1009)
chain: LLHGHPLFLRRKPVLSFQGSHLRSRATYLVFLPGLHVGLCSGPCEMAEQRFCVDYAKRGTAGCKKCKEKIVKGVCRIGKVVPNPFSESGGDMKEWYHIKCMFEKLERARATTKKIEDLTELEGWEELEDNEKEQITQHIADLSSKAAGTPKKKAVVQAKLTTTGQVTSPVKGASFVTSTNPRKFSGFSAKPNNSGEAPSSPTPKRSLSSSKCDPRHKDCLLREFRKLCAMVADNPSYNTKTQIIQDFLRKGSAGDGFHGDVYLTVKLLLPGVIKTVYNLNDKQIVKLFSRIFNCNPDDMARDLEQGDVSETIRVFFEQSKSFPPAAKSLLTIQEVDEFLLRLSKLTKEDEQQQALQDIASRCTANDLKCIIRLIKHDLKMNSGAKHVLDALDPNAYEAFKASRNLQDVVERVLHNAQEVEKEPGQRRALSVQASLMTPVQPMLAEACKSVEYAMKKCPNGMFSEIKYDGERVQVHKNGDHFSYFSRSLKPVLPHKVAHFKDYIPQAFPGGHSMILDSEVLLIDNKTGKPLPFGTLGVHKKAAFQDANVCLFVFDCIYFNDVSLMDRPLCERRKFLHDNMVEIPNRIMFSEMKRVTKALDLADMITRVIQEGLEGLVLKDVKGTYEPGKRHWLKVKKDYLNEGAMADTADLVVLGAFYGQGSKGGMMSIFLMGCYDPGSQKWCTVTKCAGGHDDATLARLQNELDMVKISKDPSKIPSWLKVNKIYYPDFIVPDPKKAAVWEITGAEFSKSEAHTADGISIRFPRCTRIRDDKDWKSATNLPQLKELYQLSKEKADFTVVAGDEGSSTTGGSSEENKGPSGSAVSRKAPSKPSASTKKAEGKLSNSNSKDGNMQTAKPSAMKVGEKLATKSSPVKVGEKRKAADETLCQTKVLLDIFTGVRLYLPPSTPDFSRLRRYFVAFDGDLVQEFDMTSATHVLGSRDKNPAAQQVSPEWIWACIRKRRLVAPC
For the molecule B2, the binding result in experiment [2] is “binds”.
